In publication PMC1215486 one finds binding data, which are given here for three molecules.

These are yes or no findings as the source states them, for the method shown. In cells and extracts the contact can be indirect. Some entries that bind do so weakly or less than the wild type. Where a sequence is shown, tags or fusion partners need not be part of it.

Assay [1] deals with T1, B3Δic FLAG (pFLAG/B3Δic), human plexin B3 lacking the intracellular part (human) (UniProt Q9ULL4).
T1 sequence: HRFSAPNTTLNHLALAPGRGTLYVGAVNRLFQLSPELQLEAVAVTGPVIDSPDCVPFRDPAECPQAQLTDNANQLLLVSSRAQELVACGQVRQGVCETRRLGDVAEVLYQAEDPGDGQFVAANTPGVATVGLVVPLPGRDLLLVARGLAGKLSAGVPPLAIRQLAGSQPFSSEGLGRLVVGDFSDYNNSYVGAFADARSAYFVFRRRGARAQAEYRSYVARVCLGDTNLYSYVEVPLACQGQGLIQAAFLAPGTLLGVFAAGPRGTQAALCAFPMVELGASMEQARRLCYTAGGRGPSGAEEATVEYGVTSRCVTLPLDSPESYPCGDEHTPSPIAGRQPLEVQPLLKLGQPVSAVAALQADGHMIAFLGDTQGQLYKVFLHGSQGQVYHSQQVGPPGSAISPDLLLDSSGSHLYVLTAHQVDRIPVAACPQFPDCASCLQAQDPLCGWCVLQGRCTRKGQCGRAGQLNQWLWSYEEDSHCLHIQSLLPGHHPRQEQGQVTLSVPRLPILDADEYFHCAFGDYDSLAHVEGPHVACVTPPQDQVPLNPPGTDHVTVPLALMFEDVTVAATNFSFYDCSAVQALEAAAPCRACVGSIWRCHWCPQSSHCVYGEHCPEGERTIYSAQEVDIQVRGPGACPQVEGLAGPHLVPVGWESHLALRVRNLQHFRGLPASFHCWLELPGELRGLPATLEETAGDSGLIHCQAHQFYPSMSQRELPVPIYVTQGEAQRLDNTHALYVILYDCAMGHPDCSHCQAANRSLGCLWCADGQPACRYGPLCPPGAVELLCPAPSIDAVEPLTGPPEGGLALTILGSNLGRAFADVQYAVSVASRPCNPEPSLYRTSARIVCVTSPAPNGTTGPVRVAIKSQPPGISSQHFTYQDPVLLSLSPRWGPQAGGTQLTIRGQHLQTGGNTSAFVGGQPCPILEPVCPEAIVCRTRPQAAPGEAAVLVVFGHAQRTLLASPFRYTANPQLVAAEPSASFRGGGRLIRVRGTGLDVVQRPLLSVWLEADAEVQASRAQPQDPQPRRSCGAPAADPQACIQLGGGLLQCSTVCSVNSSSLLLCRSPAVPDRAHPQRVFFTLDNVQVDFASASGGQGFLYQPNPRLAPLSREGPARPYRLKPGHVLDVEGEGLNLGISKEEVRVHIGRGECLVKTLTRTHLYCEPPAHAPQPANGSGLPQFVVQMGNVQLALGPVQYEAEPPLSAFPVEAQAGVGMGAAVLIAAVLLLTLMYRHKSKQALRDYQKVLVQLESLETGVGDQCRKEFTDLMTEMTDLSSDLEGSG
Kind of assay: co-IP; data not shown: human B3 deletion constructs with V5-tagged mouse B3 lacking most of its intracellular part.

Assay [2] has as its target myc-tagged full-length human plexin B3 (pSecTag2B/B3) (human) (UniProt Q9ULL4). Kind of assay: co-IP; COS-7 cells co-transfected, lysed 30 h after transfection in 20 mM tris-HCl pH 7.5, 150 mM NaCl, 1% TritonX-100; IP with pAbB3-B, anti-myc, anti-FLAG, anti-HA or anti-Rin and protein-A agarose at 4°C; washes with 500 mM NaCl, 0,1% TritonX-100; Western blot. (In western blotting, separated proteins are transferred to a membrane and probed.)

For assay [3], the target named is non-tagged full-length human plexin B3 (pIRES/B3) (human) (UniProt Q9ULL4). Kind of assay: co-IP; data not shown: recombinant full-length B3 and semaphorin 5A co-expressed in the cells, conditions as for the homophilic co-IP of B3.
The target of assay [4] is T2, B3sema HA (pcDNA3.1/B3semaHA), HA-tagged sema domain of human plexin B3 (human) (UniProt Q9ULL4).
T2 sequence: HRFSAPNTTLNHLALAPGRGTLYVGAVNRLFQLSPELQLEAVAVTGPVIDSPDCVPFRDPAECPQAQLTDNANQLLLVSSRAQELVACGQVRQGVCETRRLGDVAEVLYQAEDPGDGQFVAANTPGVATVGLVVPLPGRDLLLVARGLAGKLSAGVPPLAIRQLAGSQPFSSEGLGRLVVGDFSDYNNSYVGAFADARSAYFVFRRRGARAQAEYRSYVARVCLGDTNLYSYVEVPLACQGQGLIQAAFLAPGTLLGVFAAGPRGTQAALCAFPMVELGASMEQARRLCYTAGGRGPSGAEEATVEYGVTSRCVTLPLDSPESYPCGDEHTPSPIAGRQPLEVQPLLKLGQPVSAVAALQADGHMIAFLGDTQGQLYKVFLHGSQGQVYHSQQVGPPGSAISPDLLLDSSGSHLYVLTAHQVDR
In words: co-IP; COS-7 cells co-transfected, lysed 30 h after transfection in 20 mM tris-HCl pH 7.5, 150 mM NaCl, 1% TritonX-100; IP with pAbB3-B, anti-myc, anti-FLAG, anti-HA or anti-Rin and protein-A agarose at 4°C; washes with 500 mM NaCl, 0,1% TritonX-100; Western blot.

B1: C-terminally V5-tagged truncated mouse plexin B3 (aa 1-1,252), lacking most of its intracellular part (pcDNA/mB3V5) (domain or fragment, UniProt Q9QY40 37-1252)
chain: FSVPNTSFNHLVLAPDQGKLYVGAVNHLFQLSPELKMESVAVTGPVIDSPDCVPFRDLAECPQAQLTDNANQLLLVSSRTQELVACGQVKQGVCEKRRLGDVTQVLYQAEDPGDGQFVAANTLGVTTVGLVVPLPGRDLLLVARGLAGKLSAGVPPLTVRQLAGPQPFSSEGLGRLVVGDFSDYNNSYVGAFSDAHSAYFVFRRRGARAQTEYRSYVARVCLRDVNLYSYVEMPLTCHGQGLIQAAFLTPDTLLGAFSAGTSQAQAALCAFPLADLDRSMEQARRLCYTTGGQGPSGMEEATVEYGVTSRCVTLPPDSPESYPCGDEHTPSPIAGRQPLEAQPLLQLGQSISAVAALQTDGHTIAFLGDTQGQLHKVFLNSSHGQVYHSQQVGPPGSAISPDLLVDSNGDHLYVLTAQQVDRILVAACPQFPNCTTCLQARDPLCGWCILQGRCTRRGECGRAAQPNHWLWSYEDNHCPYIQSLLPAQHPRQEQGQIILSVPRLPTLAMDEYFHCAFGGYNSLAQVEEPHVVCTTPPQDQMPPNPPGSDHVTLPLALMFEDVVLTATTFSFYDCSAVQALEVAAPCRACVSSLWRCHWCPQSSHCIYGEHCPEGEKAVYSAQEVDILVRGPEACPQVEGLASPQLVPVGWESHVTLHIQNLHYFQGLPALYHCWLELPGKLQKLPASLEETSRDSGLIHCQAQQFYPSMSQWELPVPIYVTRGEIQRLDNAGDLHVTLYDCAMGHPDCSHCQAANGSLSCLWCGDGQPACRYGPLCPPGAVEQLCPIPSIDVIEPLTGPPEGGLAITILGSNLGQAFNDVRNAVTVAGQPCNPDPSLYRISARIVCVTSPAPNGTAGPVQVAIKSRPPGISTQNFTYQDPVLLSLNPQWGPQAGGTQLTIHGQYLQTGGNISVFVGDQPCPIQEPVCPEAIICHTMPQTEPGEAVVLIVFGHVERKLLTTPFRYTANPQLVEAEPSVSFRGGGRVIRVRGTGLDVVWQPLLSVWLEDEPKVKALGVQAQDANPRRSCGAPAADPQACIHLESGLLQCSTLCSVNSSSLLLCHSPAVPDGALPKRVFFALDNMQVDFASASGGQGFLYQPNPRLAPLSHEGITHPYHLKPGHVLDVEGEGLNLGISKEEVQVHIGDGECLVKTLTLTHLYCEPPPQAPQPTNGSGTLPQFVVQMGNLRLALGPVQYEAESMMSTFPVEAQLGLGMGA
For the molecule B1, the binding entry in assay [1] and in assay [2] was “binds” each time.

B2: human full-length semaphorin 5A (cloned into pFLAG) (ligand, UniProt Q13591 23-1074)
chain: EAQGTTQCQRTEHPVISYKEIGPWLREFRAKNAVDFSQLTFDPGQKELVVGARNYLFRLQLEDLSLIQAVEWECDEATKKACYSKGKSKEECQNYIRVLLVGGDRLFTCGTNAFTPVCTNRSLSNLTEIHDQISGMARCPYSPQHNSTALLTAGGELYAATAMDFPGRDPAIYRSLGILPPLRTAQYNSKWLNEPNFVSSYDIGNFTYFFFRENAVEHDCGKTVFSRAARVCKNDIGGRFLLEDTWTTFMKARLNCSRPGEVPFYYNELQSTFFLPELDLIYGIFTTNVNSIAASAVCVFNLSAIAQAFSGPFKYQENSRSAWLPYPNPNPHFQCGTVDQGLYVNLTERNLQDAQKFILMHEVVQPVTTVPSFMEDNSRFSHVAVDVVQGREALVHIIYLATDYGTIKKVRVPLNQTSSSCLLEEIELFPERRREPIRSLQILHSQSVLFVGLREHVVKIPLKRCQFYRTRSTCIGAQDPYCGWDVVMKKCTSLEESLSMTQWEQSISACPTRNLTVDGHFGVWSPWTPCTHTDGSAVGSCLCRTRSCDSPAPQCGGWQCEGPGMEIANCSRNGGWTPWTSWSPCSTTCGIGFQVRQRSCSNPTPRHGGRVCVGQNREERYCNEHLLCPPHMFWTGWGPWERCTAQCGGGIQARRRICENGPDCAGCNVEYQSCNTNPCPELKKTTPWTPWTPVNISDNGGHYEQRFRYTCKARLADPNLLEVGRQRIEMRYCSSDGTSGCSTDGLSGDFLRAGRYSAHTVNGAWSAWTSWSQCSRDCSRGIRNRKRVCNNPEPKYGGMPCLGPSLEYQECNILPCPVDGVWSCWSPWTKCSATCGGGHYMRTRSCSNPAPAYGGDICLGLHTEEALCNTQPCPESWSEWSDWSECEASGVQVRARQCILLFPMGSQCSGNTTESRPCVFDSNFIPEVSVARSSSVEEKRCGEFNMFHMIAVGLSSSILGCLLTLLVYTYCQRYQQQSHDATVIHPVSPAPLNTSITNHINKLDKYDSVEAIKAFNKNNLILEERNKYFNPHLTGKTYSNAYFTDLNNYDEY
With B2, the binding result in assay [3] was “binds”.

B3: B3sema V5 (pcDNA3.1/B3sema), V5-tagged sema domain of human plexin B3 (domain or fragment, UniProt Q9ULL4 45-468)
chain: HRFSAPNTTLNHLALAPGRGTLYVGAVNRLFQLSPELQLEAVAVTGPVIDSPDCVPFRDPAECPQAQLTDNANQLLLVSSRAQELVACGQVRQGVCETRRLGDVAEVLYQAEDPGDGQFVAANTPGVATVGLVVPLPGRDLLLVARGLAGKLSAGVPPLAIRQLAGSQPFSSEGLGRLVVGDFSDYNNSYVGAFADARSAYFVFRRRGARAQAEYRSYVARVCLGDTNLYSYVEVPLACQGQGLIQAAFLAPGTLLGVFAAGPRGTQAALCAFPMVELGASMEQARRLCYTAGGRGPSGAEEATVEYGVTSRCVTLPLDSPESYPCGDEHTPSPIAGRQPLEVQPLLKLGQPVSAVAALQADGHMIAFLGDTQGQLYKVFLHGSQGQVYHSQQVGPPGSAISPDLLLDSSGSHLYVLTAHQVDR
Turning to B3, the binding entry in assay [4] and in assay [2] was “binds” in each case.
